Earlier results as cited in patent US20220211620A1, “Pain Relieving Spray” (Animal Ethics Pty Ltd, priority 2019, published 2022).
Some results were stated once for a whole list of compounds, not compound by compound.

Key:
[1] = usually; long duration anaesthetic agents
[2] = topical, without cooling

SMILES: CCCCNc1ccc(C(=O)OCCN(C)C)cc1 [amethocaine]
- duration of action (anaesthesia) [1]: 4 to 12 h
- time to work on intact skin [2]: 20 to 30 min

SMILES: CCCCN1CCCCC1C(=O)Nc1c(C)cccc1C (stereo not drawn) [bupivacaine]
- duration of action (anaesthesia) [1]: 4 to 12 h
